Laboratory results reported in patent publication US20230101273A1, “MESOIONIC INSECTICIDES” (FMC Corporation, priority 2020, published 2023).
Structures can show the parent of a compound that is named as a salt. Some of these results come from one statement about several compounds together.

Tests used:
Format in all cases: in vivo
[1] = tested on: diamondback moth (Plutella xylostella (L.)); assay: Test A: control of diamondback moth on mustard plant, spray; details: 6 days, neonate larvae on mustard plant
[2] = tested on: fall armyworm (Spodoptera frugiperda (J. E. Smith)); assay: Test B: control of fall armyworm on corn plant, spray; details: 6 days, 1-day-old larvae on corn plant
[3] = tested on: Western Power Thrips (Frankliniellla occidentalis (Pergande)); assay: Test H: control of thrips through contact and/or systemic means; details: 6 days, adults and nymphs on Soleil bean plant

| Compound | control efficacy: feeding damage (40% or less feeding damage and/or 100% mortality) ([1]; sprayed at 0.4 ppm) [%] | control efficacy: feeding damage (40% or less feeding damage and/or 100% mortality) ([1]; sprayed at 2 ppm) [%] | control efficacy: feeding damage (40% or less feeding damage and/or 100% mortality) ([1]; sprayed at 10 ppm) [%] | control efficacy: feeding damage (40% or less feeding damage and/or 100% mortality) ([2]; sprayed at 0.4 ppm) [%] | control efficacy: feeding damage (40% or less feeding damage and/or 100% mortality) ([2]; sprayed at 2 ppm) [%] | control efficacy: feeding damage (40% or less feeding damage and/or 100% mortality) ([2]; sprayed at 10 ppm) [%] | control efficacy: plant damage (30% or less plant damage and/or 100% mortality) ([3]; sprayed at 50 ppm) [%] | control efficacy: plant damage (30% or less plant damage and/or 100% mortality) ([3]; sprayed at 250 ppm) [%] |
| --- | --- | --- | --- | --- | --- | --- | --- | --- |
| Cc1cccn2c(=O)c(-c3cc(F)cc(C#CC4CC4)c3)c([O-])[n+](Cc3cnc(Cl)s3)c12 [Compound 29] | ≤ 40 | ≤ 40 | ≤ 40 | ≤ 40 | ≤ 40 | ≤ 40 | – | – |
| Cc1cccn2c(=O)c(-c3cc(Cl)cc(C#CC4CC4)c3)c([O-])[n+](Cc3cnc(Cl)s3)c12 [Compound 35] | ≤ 40 | ≤ 40 | ≤ 40 | ≤ 40 | ≤ 40 | ≤ 40 | – | – |
| CC#Cc1cccc(-c2c([O-])[n+](Cc3cnc(Cl)s3)c3c(C)cccn3c2=O)c1 [Compound 61] | ≤ 40 | ≤ 40 | ≤ 40 | ≤ 40 | ≤ 40 | ≤ 40 | – | – |
| COc1cc(C#CC(C)(C)C)cc(-c2c([O-])[n+](Cc3cnc(Cl)s3)c3c(C)cccn3c2=O)c1 [Compound 17] | ≤ 40 | ≤ 40 | ≤ 40 | – | ≤ 40 | ≤ 40 | – | – |
| COc1ccc(-c2c([O-])[n+](Cc3cnc(Cl)s3)c3c(C)cccn3c2=O)cc1C#CC1CC1 [Compound 68] | ≤ 40 | ≤ 40 | ≤ 40 | – | ≤ 40 | ≤ 40 | – | – |
| Cc1cccn2c(=O)c(-c3cc(C#CC(C)C)cc(C(C)C)c3)c([O-])[n+](Cc3cnc(Cl)s3)c12 [Compound 13] | ≤ 40 | ≤ 40 | ≤ 40 | ≤ 40 | ≤ 40 | ≤ 40 | – | – |
| Cc1cccn2c(=O)c(-c3cccc(C#CC(C)(C)C)c3)c([O-])[n+](Cc3cnc(Cl)s3)c12 [Compound 42] | ≤ 40 | ≤ 40 | ≤ 40 | ≤ 40 | ≤ 40 | ≤ 40 | ≤ 30 | ≤ 30 |
| Cc1cccn2c(=O)c(-c3cc(Cl)cc(C#CC(C)(C)C)c3)c([O-])[n+](Cc3cnc(Cl)s3)c12 [Compound 34] | ≤ 40 | ≤ 40 | ≤ 40 | ≤ 40 | ≤ 40 | ≤ 40 | – | – |
| Cc1ccc(-c2c([O-])[n+](Cc3cnc(Cl)s3)c3c(C)cccn3c2=O)cc1C#CC(C)(C)C [Compound 87] | – | ≤ 40 | ≤ 40 | – | ≤ 40 | ≤ 40 | – | – |
| Cc1cccn2c(=O)c(-c3cc(C#CC(C)(C)C)cc(C(F)(F)F)c3)c([O-])[n+](Cc3cnc(Cl)s3)c12 [Compound 8] | – | ≤ 40 | ≤ 40 | – | ≤ 40 | ≤ 40 | – | – |
| Cc1cccn2c(=O)c(-c3cc(F)cc(C#CC(C)(C)C)c3)c([O-])[n+](Cc3cnc(Cl)s3)c12 [Compound 23] | ≤ 40 | ≤ 40 | ≤ 40 | ≤ 40 | ≤ 40 | ≤ 40 | – | – |
| Cc1cccn2c(=O)c(-c3cc(C#CC4CC4)cc(C(F)(F)F)c3)c([O-])[n+](Cc3cnc(Cl)s3)c12 [Compound 28] | ≤ 40 | ≤ 40 | ≤ 40 | – | ≤ 40 | ≤ 40 | – | – |
| Cc1cccn2c(=O)c(-c3cc(Cl)cc(C#CC(C)C)c3)c([O-])[n+](Cc3cnc(Cl)s3)c12 [Compound 32] | ≤ 40 | ≤ 40 | ≤ 40 | ≤ 40 | ≤ 40 | ≤ 40 | – | – |
| COc1cc(C#CC2CC2)cc(-c2c([O-])[n+](Cc3cnc(Cl)s3)c3c(C)cccn3c2=O)c1 [Compound 4, 1-[(2-chloro-5-thiazolyl)methyl]-3-[3-(2-cyclopropylethynyl)-5-methoxyphenyl]-2-hydroxy-9-methyl-4-oxo-4H-pyrido[1,2-a]pyrimidinium inner salt] | ≤ 40 | ≤ 40 | ≤ 40 | ≤ 40 | ≤ 40 | ≤ 40 | ≤ 30 | ≤ 30 |
| Cc1cccn2c(=O)c(-c3cccc(C#Cc4ccccc4)c3)c([O-])[n+](Cc3cnc(Cl)s3)c12 [Compound 46] | ≤ 40 | ≤ 40 | ≤ 40 | ≤ 40 | ≤ 40 | ≤ 40 | – | – |
| Cc1cc(C#CC2CC2)cc(-c2c([O-])[n+](Cc3cnc(Cl)s3)c3c(C)cccn3c2=O)c1 [Compound 11, 1-[(2-chloro-5-thiazolyl)methyl]-3-[3-(2-cyclopropylethynyl)-5-methylphenyl]-2-hydroxy-9-methyl-4-oxo-4H-pyrido[1,2-a]pyrimidinium inner salt] | ≤ 40 | ≤ 40 | ≤ 40 | ≤ 40 | ≤ 40 | ≤ 40 | ≤ 30 | ≤ 30 |
| Cc1cc(C#CC(C)C)cc(-c2c([O-])[n+](Cc3cnc(Cl)s3)c3c(C)cccn3c2=O)c1 [Compound 7, 1-[(2-chloro-5-thiazolyl)methyl]-2-hydroxy-9-methyl-3-[3-methyl-5-(3-methyl-1-butyn-1-yl)phenyl]-4-oxo-4H-pyrido[1,2-a]pyrimidinium inner salt] | ≤ 40 | ≤ 40 | ≤ 40 | ≤ 40 | ≤ 40 | ≤ 40 | – | – |
